Results as given in patent US12729225B2, “Non-canonical SWI/SNF complex and uses thereof” (Dana-Farber Cancer Institute, Inc., priority 2018, dated 2026).

System: mSWI/SNF complexes
Assay: mSWI/SNF complex purification with HA-tagged baits and mass spectrometry (peptide counts)
Set-up: species or system human
[1] = 293_HA-BRD7 bait purification, mass spectrometry, total peptide count per identified protein
[2] = 293_HA-BRD7 bait purification, mass spectrometry, unique peptide count per identified protein

Row | Molecule | Total [1] | Unique [2] | Total (293_HA-BRD7: HA-BRD7 bait purification, total peptide count per co-purified protein) | Unique (293_HA-BRD7: HA-BRD7 bait purification, unique peptide count per co-purified protein)
1 | SF3A3 (protein) METILEQQRRYHEEKERLMDVMAKEMLTKKSTLRDQINSDHRTRAMQDRYMEVSGNLRDLYDDKDGLRKEELNAISGPNEFAEFYNRLKQIKEFHRKHPNEICVPMSVEFEELLKARENPSEEAQNLVEFTDEEGYGRYLDLHDCYLKYINLKASEKLDYITYLSIFDQLFDIPKERKNAEYKRYLEMLLEYLQDYTDRVKPLQDQNELFGKIQAEFEKKWENGTFPGWPKETSSALTHAGAHLDLSAFSSWEELASLGLDRLKSALLALGLKCGGTLEERAQRLFSTKGKSLESLDTSLFAKNPKSKGTKRDTERNKDIAFLEAQIYEYVEILGEQRHLTHENVQRKQARTGEEREEEEEEQISESESEDEENEIIYNPKNLPLGWDGKPIPYWLYKLHGLNINYNCEICGNYTYRGPKAFQRHFAEWRHAHGMRCLGIPNTAHFANVTQIEDAVSLWAKLKLQKASERWQPDTEEEYEDSSGNVVNKKTYEDLKRQGLL | 1 | 1 | – | –
2 | ZNF579 (protein, UniProt Q8NAF0 1-562, looked up) Zinc finger protein 579: MDPQPPPPAQGSPPHRGRGRGRGRGRGRGRGRGRGGAGAPRAPLPCPTCGRLFRFPYYLSRHRLSHSGLRPHACPLCPKAFRRPAHLSRHLRGHGPQPPLRCAACPRTFPEPAQLRRHLAQEHAGGEVELAIERVAKETAEPSWGPQDEGSEPPTTAAAGATEEEAVAAWPETWPAGEPSTLAAPTSAAEPRESESEEAEAGAAELRAELALAAGRQEEKQVLLQADWTLLCLRCREAFATKGELKAHPCLRPEGEQEGEGGPPPRPKRHQCSICLKAFARPWSLSRHRLVHSTDRPFVCPDCGLAFRLASYLRQHRRVHGPLSLLAPLPAAGKKDDKASGARNSAKGPEGGEGAECGGASEGGEGQNGGDAAPARPPAGEPRFWCPECGKGFRRRAHLRQHGVTHSGARPFQCVRCQREFKRLADLARHAQVHAGGPAPHPCPRCPRRFSRAYSLLRHQRCHRAELERAAALQALQAQAPTSPPPPPPPLKAEQEEEGLPLPLANIKEEPPSPGTPPQSPPAPPVFLSASCFDSQDHSAFEMEEEEVDSKAHLRGLGGLAS | 1 | 1 | – | –
3 | DDX50 (protein, UniProt Q9BQ39 1-737, looked up) ATP-dependent RNA helicase …: MPGKLLWGDIMELEAPLEESESQKKERQKSDRRKSRHHYDSDEKSETRENGVTDDLDAPKAKKSKMKEKLNGDTEEGFNRLSDEFSKSHKSRRKDLPNGDIDEYEKKSKRVSSLDTSTHKSSDNKLEETLTREQKEGAFSNFPISEETIKLLKGRGVTYLFPIQVKTFGPVYEGKDLIAQARTGTGKTFSFAIPLIERLQRNQETIKKSRSPKVLVLAPTRELANQVAKDFKDITRKLSVACFYGGTSYQSQINHIRNGIDILVGTPGRIKDHLQSGRLDLSKLRHVVLDEVDQMLDLGFAEQVEDIIHESYKTDSEDNPQTLLFSATCPQWVYKVAKKYMKSRYEQVDLVGKMTQKAATTVEHLAIQCHWSQRPAVIGDVLQVYSGSEGRAIIFCETKKNVTEMAMNPHIKQNAQCLHGDIAQSQREITLKGFREGSFKVLVATNVAARGLDIPEVDLVIQSSPPQDVESYIHRSGRTGRAGRTGICICFYQPRERGQLRYVEQKAGITFKRVGVPSTMDLVKSKSMDAIRSLASVSYAAVDFFRPSAQRLIEEKGAVDALAAALAHISGASSFEPRSLITSDKGFVTMTLESLEEIQDVSCAWKELNRKLSSNAVSQITRMCLLKGNMGVCFDVPTTESERLQAEWHDSDWILSVPAKLPEIEEYYDGNTSSNSRQRSGWSSGRSGRSGRSGGRSGGRSGRQSRQGSRSGSRQDGRRRSGNRNRSRSGGHKRSFD | – | – | 13 | 13
4 | DDX19A (protein, UniProt Q9NUU7 2-478, looked up) ATP-dependent RNA helicase …: ATDSWALAVDEQEAAVKSMTNLQIKEEKVKADTNGIIKTSTTAEKTDEEEKEDRAAQSLLNKLIRSNLVDNTNQVEVLQRDPNSPLYSVKSFEELRLKPQLLQGVYAMGFNRPSKIQENALPMMLAEPPQNLIAQSQSGTGKTAAFVLAMLSRVEPSDRYPQCLCLSPTYELALQTGKVIEQMGKFYPELKLAYAVRGNKLERGQKISEQIVIGTPGTVLDWCSKLKFIDPKKIKVFVLDEADVMIATQGHQDQSIRIQRMLPRNCQMLLFSATFEDSVWKFAQKVVPDPNVIKLKREEETLDTIKQYYVLCSSRDEKFQALCNLYGAITIAQAMIFCHTRKTASWLAAELSKEGHQVALLSGEMMVEQRAAVIERFREGKEKVLVTTNVCARGIDVEQVSVVINFDLPVDKDGNPDNETYLHRIGRTGRFGKRGLAVNMVDSKHSMNILNRIQEHFNKKIERLDTDDLDEIEKIAN | 1 | 1 | – | –
